# Measured values taken from the supplement of paper PMC8728848.
# The other results are listed elsewhere or left out.
# What was measured:
# Assay in all cases: glycan array binding signal (z-score within array); higher = stronger binding
# Conditions in all cases: glycan notation: IUPAC condensed, linker removed
# Neu5Ac(a2-8)Neu5Ac = molecular target: Neu5Ac(a2-8)Neu5Ac
# Method in brief: (§1)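 Negative Z-scores can be read as non-binding. The Z-score is calculated within each array and then averaged across arrays of one protein sequence at different concentrations or buffers and across linkers. Arrays, 3228 in all, were curated from the Consortium for Functional Glycomics database and kept only where the protein sequence was available.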
# [1] = molecular target: Neu5Ac(a2-8)Neu5Ac(a2-3)Gal(b1-3)GalNAc(b1-4)[Neu5Ac(a2-3)]Gal(b1-4)Glc
# Method in brief: as §1
# [2] = molecular target: Neu5Ac(a2-8)Neu5Ac(a2-3)Gal(b1-3)GalNAc(b1-4)[Neu5Ac(a2-8)Neu5Ac(a2-3)]Gal(b1-4)Glc
# Method in brief: as §1
# [3] = molecular target: Neu5Ac(a2-8)Neu5Ac(a2-3)Gal(b1-4)Glc
# Method in brief: as §1
# [4] = molecular target: Neu5Ac(a2-8)Neu5Ac(a2-3)Gal(b1-4)GlcNAc
# Method in brief: as §1
# [5] = molecular target: Neu5Ac(a2-8)Neu5Ac(a2-3)[Gal(b1-3)GalNAc(b1-4)]Gal(b1-4)Glc
# Method in brief: as §1
# [6] = molecular target: Neu5Ac(a2-8)Neu5Ac(a2-3)[GalNAc(b1-4)]Gal(b1-4)Glc
# Method in brief: as §1
# [7] = molecular target: Neu5Ac(a2-8)Neu5Ac(a2-8)Neu5Ac
# Method in brief: as §1
# [8] = molecular target: Neu5Ac(a2-8)Neu5Ac(a2-8)Neu5Ac(a2-3)Gal(b1-4)Glc
# Method in brief: as §1
# [9] = molecular target: Neu5Ac(a2-8)Neu5Ac(a2-8)Neu5Ac(a2-3)[Gal(b1-3)GalNAc(b1-4)]Gal(b1-4)Glc
# Method in brief: as §1
# [10] = molecular target: Neu5Ac(a2-8)Neu5Ac(a2-8)Neu5Ac(a2-3)[GalNAc(b1-4)]Gal(b1-4)Glc
# Method in brief: as §1
# [11] = molecular target: Neu5Ac(a2-8)Neu5Ac(a2-8)Neu5Ac(a2-8)Neu5Ac(a2-3)[GalNAc(b1-4)]Gal(b1-4)Glc
# Method in brief: as §1
# [12] = molecular target: Neu5Ac(a2-8)Neu5Gc(a2-3)Gal(b1-4)GlcNAc
# Method in brief: as §1
# [13] = molecular target: Neu5Ac(b2-6)Gal(b1-4)GlcNAc
# Method in brief: as §1
# Neu5Ac(b2-6)GalNAc = molecular target: Neu5Ac(b2-6)GalNAc
# Method in brief: as §1
# [14] = molecular target: Neu5Ac9Ac(a2-3)Gal(b1-3)GlcNAc
# Method in brief: as §1
# [15] = molecular target: Neu5Ac9Ac(a2-3)Gal(b1-4)GlcNAc
# Method in brief: as §1
# [16] = molecular target: Neu5Ac9Ac(a2-6)Gal(b1-4)GlcNAc
# Method in brief: as §1
# [17] = molecular target: Neu5Gc(a2-3)Gal(b1-3)GlcNAc
# Method in brief: as §1
# [18] = molecular target: Neu5Gc(a2-3)Gal(b1-3)[Fuc(a1-4)]GlcNAc
# Method in brief: as §1
# Neu5Gc(a2-3)Gal(b1-4)Glc = molecular target: Neu5Gc(a2-3)Gal(b1-4)Glc
# Method in brief: as §1
# [19] = molecular target: Neu5Gc(a2-3)Gal(b1-4)GlcNAc
# Method in brief: as §1
# [20] = molecular target: Neu5Gc(a2-3)Gal(b1-4)GlcNAc(b1-3)Gal(b1-4)GlcNAc(b1-2)Man(a1-3)[Neu5Gc(a2-3)Gal(b1-4)GlcNAc(b1-3)Gal(b1-4)GlcNAc(b1-2)Man(a1-6)]Man(b1-4)GlcNAc(b1-4)GlcNAc
# Method in brief: as §1
# [21] = molecular target: Neu5Gc(a2-3)Gal(b1-4)[Fuc(a1-3)]GlcNAc
# Method in brief: as §1
# [22] = molecular target: Neu5Gc(a2-6)Gal(b1-4)GlcNAc
# Method in brief: as §1
# Neu5Gc(a2-6)GalNAc = molecular target: Neu5Gc(a2-6)GalNAc
# Method in brief: as §1
# [23] = molecular target: Neu5Gc(a2-8)Neu5Ac(a2-3)Gal(b1-4)GlcNAc
# Method in brief: as §1
# [24] = molecular target: Neu5Gc(a2-8)Neu5Gc(a2-3)Gal(b1-4)GlcNAc
# Method in brief: as §1
# [25] = molecular target: Neu5Gc(a2-8)Neu5Gc(a2-3)Gal(b1-4)GlcNAc(b1-3)Gal(b1-4)GlcNAc
# Method in brief: as §1
# [26] = molecular target: Neu5Gc(a2-8)Neu5Gc(a2-6)Gal(b1-4)GlcNAc
# Method in brief: as §1
# [27] = molecular target: Neu5Gc(b2-6)Gal(b1-4)GlcNAc
# Method in brief: as §1
binder,measurement,setting,value
"MXA PilAct-eGFP (Myxococcus xanthus), Q59589 (protein) MRVSRFNPRNRGFTLIELMIVVAIIGILAAIAIPNFIKFQARSKQSEAKTNLKALYTAQKSFFSEKDRYSDFANEIGFAPERGNRYGYRVSAAAGDCEVRNAADLPVPAAGVPCISNDSFRFGANSAIDDPTPVVARFVPQGAAGWNTTLGVQPTIADCPNCNFFAGARGNADNEATFDDWVIAGFEGSGQVGPCSEAGNVASGTPYNTRNDVACDGAAQ",glycan array binding signal (z-score),Neu5Ac(a2-8)Neu5Ac,-0.109
same,glycan array binding signal (z-score),[1],-0.408
same,glycan array binding signal (z-score),[2],-0.32
same,glycan array binding signal (z-score),[3],-0.831
same,glycan array binding signal (z-score),[4],0.947
same,glycan array binding signal (z-score),[5],0.314
same,glycan array binding signal (z-score),[6],3.6
same,glycan array binding signal (z-score),[7],-0.469
same,glycan array binding signal (z-score),[8],-0.589
same,glycan array binding signal (z-score),[9],-1.16
same,glycan array binding signal (z-score),[10],0.792
same,glycan array binding signal (z-score),[11],1.8
same,glycan array binding signal (z-score),[12],1.33
same,glycan array binding signal (z-score),[13],0.106
same,glycan array binding signal (z-score),Neu5Ac(b2-6)GalNAc,0.611
same,glycan array binding signal (z-score),[14],4.29
same,glycan array binding signal (z-score),[15],-0.852
same,glycan array binding signal (z-score),[16],-0.668
same,glycan array binding signal (z-score),[17],0.057
same,glycan array binding signal (z-score),[18],0.021
same,glycan array binding signal (z-score),Neu5Gc(a2-3)Gal(b1-4)Glc,-0.589
same,glycan array binding signal (z-score),[19],0.407
same,glycan array binding signal (z-score),[20],0.6
same,glycan array binding signal (z-score),[21],-0.274
same,glycan array binding signal (z-score),[22],0.306
same,glycan array binding signal (z-score),Neu5Gc(a2-6)GalNAc,-0.802
same,glycan array binding signal (z-score),[23],-0.085
same,glycan array binding signal (z-score),[24],-0.272
same,glycan array binding signal (z-score),[25],0.474
same,glycan array binding signal (z-score),[26],0.272
same,glycan array binding signal (z-score),[27],0.287

# Some of the entries above, set out differently:
binder | measurement | setting | value
MXA PilAct-eGFP (Myxococcus xanthus), Q59589 (protein) MRVSRFNPRNRGFTLIELMIVVAIIGILAAIAIPNFIKFQARSKQSEAKTNLKALYTAQKSFFSEKDRYSDFANEIGFAPERGNRYGYRVSAAAGDCEVRNAADLPVPAAGVPCISNDSFRFGANSAIDDPTPVVARFVPQGAAGWNTTLGVQPTIADCPNCNFFAGARGNADNEATFDDWVIAGFEGSGQVGPCSEAGNVASGTPYNTRNDVACDGAAQ | glycan array binding signal (z-score) | [5] | 0.314
same | glycan array binding signal (z-score) | [6] | 3.6
